## Screening data, single-dose tests

Amino acid sequences for entries named in this document (tags omitted). Residues count along the entry.
UniProt A4I591, 1-473: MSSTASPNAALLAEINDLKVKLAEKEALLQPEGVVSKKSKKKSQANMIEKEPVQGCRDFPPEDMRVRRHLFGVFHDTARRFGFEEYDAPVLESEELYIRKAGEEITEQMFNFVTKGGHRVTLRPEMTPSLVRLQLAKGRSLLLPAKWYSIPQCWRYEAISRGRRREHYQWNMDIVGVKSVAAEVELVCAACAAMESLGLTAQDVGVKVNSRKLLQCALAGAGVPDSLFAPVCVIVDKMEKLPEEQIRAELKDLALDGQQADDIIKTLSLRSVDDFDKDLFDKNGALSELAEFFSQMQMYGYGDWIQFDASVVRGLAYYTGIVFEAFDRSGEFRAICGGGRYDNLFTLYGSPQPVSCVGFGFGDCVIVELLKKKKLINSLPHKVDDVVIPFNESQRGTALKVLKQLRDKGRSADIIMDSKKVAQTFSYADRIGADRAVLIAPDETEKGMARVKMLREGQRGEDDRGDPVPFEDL
UniProt I6X8D2, whole entry: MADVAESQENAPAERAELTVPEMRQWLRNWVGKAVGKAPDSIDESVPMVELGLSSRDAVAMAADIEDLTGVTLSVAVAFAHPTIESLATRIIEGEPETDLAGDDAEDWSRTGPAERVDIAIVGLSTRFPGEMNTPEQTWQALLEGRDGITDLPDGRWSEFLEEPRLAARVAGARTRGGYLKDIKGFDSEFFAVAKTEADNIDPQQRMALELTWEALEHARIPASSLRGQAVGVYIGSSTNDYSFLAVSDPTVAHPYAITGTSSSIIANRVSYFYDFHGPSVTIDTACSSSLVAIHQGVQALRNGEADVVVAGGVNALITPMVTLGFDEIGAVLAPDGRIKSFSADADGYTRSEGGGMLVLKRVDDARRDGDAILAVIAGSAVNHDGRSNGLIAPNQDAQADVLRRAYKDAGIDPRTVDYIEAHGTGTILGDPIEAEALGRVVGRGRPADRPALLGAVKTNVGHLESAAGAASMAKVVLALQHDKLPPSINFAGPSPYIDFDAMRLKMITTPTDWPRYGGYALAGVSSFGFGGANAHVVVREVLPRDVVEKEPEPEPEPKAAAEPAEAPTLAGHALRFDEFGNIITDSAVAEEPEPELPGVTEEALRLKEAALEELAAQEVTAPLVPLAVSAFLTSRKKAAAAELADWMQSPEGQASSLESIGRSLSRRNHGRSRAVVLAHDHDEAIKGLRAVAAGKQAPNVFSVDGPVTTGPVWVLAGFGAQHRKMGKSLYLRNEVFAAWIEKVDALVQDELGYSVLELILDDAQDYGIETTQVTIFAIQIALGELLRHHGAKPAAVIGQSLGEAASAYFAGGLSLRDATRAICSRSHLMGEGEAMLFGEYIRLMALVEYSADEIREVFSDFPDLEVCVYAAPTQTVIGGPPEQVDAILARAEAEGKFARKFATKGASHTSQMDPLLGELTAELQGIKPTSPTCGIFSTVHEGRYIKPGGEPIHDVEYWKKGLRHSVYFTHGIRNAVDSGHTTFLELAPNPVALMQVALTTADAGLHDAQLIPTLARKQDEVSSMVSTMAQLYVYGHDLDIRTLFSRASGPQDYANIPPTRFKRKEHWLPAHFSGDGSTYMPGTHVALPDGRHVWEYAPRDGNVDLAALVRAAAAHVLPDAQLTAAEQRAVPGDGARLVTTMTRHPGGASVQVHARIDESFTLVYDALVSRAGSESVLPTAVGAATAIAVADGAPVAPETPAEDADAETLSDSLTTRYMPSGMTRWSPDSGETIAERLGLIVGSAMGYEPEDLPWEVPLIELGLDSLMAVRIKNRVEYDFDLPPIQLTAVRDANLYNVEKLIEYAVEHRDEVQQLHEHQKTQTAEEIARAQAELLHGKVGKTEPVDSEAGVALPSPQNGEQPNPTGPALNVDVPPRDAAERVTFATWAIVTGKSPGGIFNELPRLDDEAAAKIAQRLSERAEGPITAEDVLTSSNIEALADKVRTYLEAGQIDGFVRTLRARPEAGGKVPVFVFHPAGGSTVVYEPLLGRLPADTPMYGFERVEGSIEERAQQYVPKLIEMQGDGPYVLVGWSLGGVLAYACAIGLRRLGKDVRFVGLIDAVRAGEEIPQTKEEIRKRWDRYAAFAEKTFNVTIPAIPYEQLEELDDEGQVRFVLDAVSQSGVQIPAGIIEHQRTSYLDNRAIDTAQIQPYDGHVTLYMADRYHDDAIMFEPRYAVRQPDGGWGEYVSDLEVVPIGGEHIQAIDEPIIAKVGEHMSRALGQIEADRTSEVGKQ

The filed quantity is “Percent Effect” (%). How 0% and 100% were set is not recorded. Most values in the screen are low, and negative values occur. Compounds were drawn at random from those tested, without regard to their results.

LiHisRS: 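Enzyme assay of histidyl-tRNA synthetase; the read-out is not stated. Target: Histidine-tRNA ligase, Leishmania infantum (UniProt A4I591). Compounds at 30 µM. The record gives no direction; compounds that gave an IC50 in retests scored well above the rest, so higher reads as stronger inhibition. The assay is labelled LdHisRS but filed under L. infantum. Size under these conditions: about 69,000 compounds, about 410 of them at 50% or above in at least one test.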
Pks13 thioesterase: 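Enzyme assay of the thioesterase domain of polyketide synthase 13; the read-out is not stated. Target: Polyketide synthase Pks13, Mycobacterium tuberculosis (UniProt I6X8D2). Concentration: 30 µM. The record gives no direction; the compounds picked for IC50 retests had high values, so higher reads as stronger inhibition. Size under these conditions: about 67,000 compounds, about 300 of them at 50% or above in at least one test.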

- Cc1ccc(-c2cnn(CC(=O)NC(C)C)c2)cc1 : LiHisRS: 12.28%; Pks13 thioesterase: 9.823%
- COc1cc2cc3c(nc2cc1OC)OCCN(CC1CC1)C3 : LiHisRS: 8.511%; Pks13 thioesterase: 9.803%
- O=C1CC2(CCCC2)C(=O)N1CC(O)COCc1ccccc1F (configuration not stated) : LiHisRS: 0%; Pks13 thioesterase: -5.04%
- COCCn1cnnc1CCn1ccnc1-c1ccccc1Cl : LiHisRS: 20.34%; Pks13 thioesterase: -26.6%
- COc1cccc2c1OCCCN(Cc1ccc(C(N)=O)c(=O)[nH]1)C2 : LiHisRS: 9.211%; Pks13 thioesterase: -31.3%
- CC(=O)N1CC(=O)N(c2ccccc2)CC12CCN(Cc1nccs1)C2 (configuration not stated) : LiHisRS: 13.21%; Pks13 thioesterase: 1.608%
- Cc1noc(NC(=O)c2ccc(Br)s2)n1 : LiHisRS: -1.515%; Pks13 thioesterase: -3.554%
- COC(=O)[C@H](C)NC(=O)CSCc1nc2sc(C(C)C)cc2c(=O)[nH]1 : LiHisRS: 18.48%; Pks13 thioesterase: -5.21%
- Cc1noc(CCCC(=O)NC(C)c2cn(-c3ccccc3)nn2)n1 (configuration not stated) : LiHisRS: 21.6%; Pks13 thioesterase: -1.308%
- O=C1CCC(=O)N1CCN1CCN(c2cc(F)ccc2F)CC1 : LiHisRS: 16.88%; Pks13 thioesterase: -32.48%
- O=C(Nc1cccnc1)[C@H]1CN(C2CCCC2)C[C@H]2OCC[C@@H]12 : LiHisRS: 13.27%; Pks13 thioesterase: -36.14%
- COc1c(CNCCNC(=O)c2ccco2)c(C)nn1C : LiHisRS: 9.231%; Pks13 thioesterase: -3.424%
- CN(C)S(=O)(=O)N1CCCC1c1cccc(-n2ccnc2)n1 (configuration not stated) : LiHisRS: 10.14%; Pks13 thioesterase: -65.78%
- O=C(N1CCCC1)N1CCC2(CCCN(CCOc3ccccc3)C2)C1 (configuration not stated) : LiHisRS: 7.317%; Pks13 thioesterase: 3.47%
- CCc1nc(CN(C)Cc2nnc(-c3cccs3)o2)cs1 : LiHisRS: 10.92%; Pks13 thioesterase: -30%
- CSc1ncc(CN2CC(Oc3c(C)cccc3C)C2)cn1 : LiHisRS: 14.52%; Pks13 thioesterase: -21.99%
- CCc1cnc(CNc2ccc(C(=O)NCc3ccco3)cc2C)o1 : LiHisRS: 3.175%; Pks13 thioesterase: -24.57%
- CCc1nc(C)c(C(C)N(C)CCc2ccccn2)s1 (configuration not stated) : LiHisRS: -3.896%; Pks13 thioesterase: 26.51%
- CC(SCCC(=O)NC(N)=O)c1cccc(F)c1 (configuration not stated) : LiHisRS: 12.61%
- COc1ccc(CC(=O)NC(C)c2nc3cccnc3n2C(C)C)cc1 (configuration not stated) : LiHisRS: 8.966%; Pks13 thioesterase: -8.491%
- c1cncc(-c2nc(C3CC3)ncc2-c2ccnc(N3CCCC3)n2)c1 : LiHisRS: 14.29%; Pks13 thioesterase: 11.64%
- O=C(c1nnn(-c2ccc(Cl)cc2)n1)N(CCO)Cc1ccccc1 : LiHisRS: 12%; Pks13 thioesterase: -20.3%
- CC(C)CN1CCNC(=O)C12CCN(S(=O)(=O)c1ccc(F)cc1)CC2 : LiHisRS: 25.24%; Pks13 thioesterase: -27.28%
- Cn1cc(CC2CCN(C(=O)NCc3cccc(C(N)=O)c3)C2)cn1 (configuration not stated) : LiHisRS: 14.68%; Pks13 thioesterase: -8.325%
- Cc1cc2ccccc2n1CC(=O)N[C@@H](C)C(=O)O : LiHisRS: 14.61%; Pks13 thioesterase: 11.72%
- Cc1cc(C)n(CC2CN(CC(=O)NC(C3CC3)C3CC3)CCO2)n1 (configuration not stated) : LiHisRS: 13.91%; Pks13 thioesterase: -8.804%
- C[C@@H]1CN(C(=O)c2ccc(C#N)nc2)C[C@@]1(O)C1CC1 : LiHisRS: 15.38%; Pks13 thioesterase: -16.04%
- Fc1cnc(N2CCOCC3(CCCNC3)C2)nc1 (configuration not stated) : LiHisRS: 5.263%; Pks13 thioesterase: 13.82%
- CCOc1ccc(C(=O)N(CCOC)Cc2c(C)nn(CC)c2C)o1 : LiHisRS: 63.33%
- CC(C)OCCCN(Cc1ccncc1)Cc1cc(F)cc(F)c1 : LiHisRS: -13.68%; Pks13 thioesterase: -10.26%
- COc1ccccc1C1CNC(=O)c2nc(-c3c(C)n[nH]c3C)[nH]c2C1 (configuration not stated) : LiHisRS: 16.67%; Pks13 thioesterase: 19.5%
- COc1c(CC2CC(C(=O)O)=NO2)c(Br)c2c(c1OC)OCO2 (configuration not stated) : LiHisRS: 1.235%; Pks13 thioesterase: -9.442%
- CN1CCC2(CCC1=O)CCN(C(=O)Cc1ccc(O)c(F)c1)CC2 : LiHisRS: 12%; Pks13 thioesterase: -4.646%
- CCN(C(=O)c1cc2c([nH]c1=O)CCCC2=O)C1CCCCC1 : LiHisRS: 20%; Pks13 thioesterase: -20.03%
- O=S1(=O)[C@@H](c2ccccc2)[C@H](CO)CN1c1ccccc1 : LiHisRS: 8.247%; Pks13 thioesterase: 10.23%
- CCn1cc(CN2CCCN(C(=O)c3c(C)oc(C)c3C)CC2)cn1 : LiHisRS: 7.965%; Pks13 thioesterase: -8.954%
- O=C(COc1cccnc1)N1CCCC(n2cccn2)C1 (configuration not stated) : LiHisRS: 8.264%; Pks13 thioesterase: -8.477%
- CCCN1CCN(C(=O)c2ccc3nc(C)oc3c2)[C@H]2CS(=O)(=O)C[C@H]21 : LiHisRS: 19.84%; Pks13 thioesterase: 2.06%
- CCc1cc(=O)n(CC(=O)N2CCC(C)CC2)c(-c2ccccc2)n1 : LiHisRS: 20.99%; Pks13 thioesterase: -20.85%
- c1cnc(N2CCO[C@H]3CN(CC4CCC4)C[C@H]32)cn1 : LiHisRS: 6.306%; Pks13 thioesterase: 6.892%

Once more, the final 2:

With CCc1cc(=O)n(CC(=O)N2CCC(C)CC2)c(-c2ccccc2)n1 the screen gave LiHisRS: 20.99%; Pks13 thioesterase: -20.85%.
With c1cnc(N2CCO[C@H]3CN(CC4CCC4)C[C@H]32)cn1 the screen gave LiHisRS: 6.306%; Pks13 thioesterase: 6.892%.

Source: ChEMBL document CHEMBL3988442, “University of Dundee, Small-Polar-MMV Screening Library” (2021).